Data: the supplement of paper PMC10849652
The list shows a part of the results.

The chains behind the UniProt entries cited, without tags or fusion partners. Where a name states a change or a piece, a line headed by the entry shows the natural chain unless it says otherwise.
UniProt Q9UL40: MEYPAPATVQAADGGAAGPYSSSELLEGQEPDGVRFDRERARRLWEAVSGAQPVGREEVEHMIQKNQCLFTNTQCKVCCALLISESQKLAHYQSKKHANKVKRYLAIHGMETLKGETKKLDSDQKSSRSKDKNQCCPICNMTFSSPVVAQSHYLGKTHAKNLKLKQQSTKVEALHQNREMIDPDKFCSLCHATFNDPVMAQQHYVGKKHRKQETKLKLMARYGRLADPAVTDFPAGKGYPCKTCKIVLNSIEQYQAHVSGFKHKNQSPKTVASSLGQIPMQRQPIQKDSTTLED

What follows are compounds tested against ZNF346 (UniProt Q9UL40) (assay: log2 fold change, soluble protein after heating vs DMSO (PISA); higher = thermal stabilisation; K562 cells, 10 uM, 30 min; active = over 0.2 and 3.5 SD of the protein, either way, in both replicates (recomputed)).
Procedure, shortened: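 K562 cells at 2×10^6 cells/mL were exposed to 10 μM compound for 30 min, then aliquots were heated for 3 min across 48°C-58°C, pooled, and extracted in PBS containing 0.5% NP-40 at 4°C. The supernatant after 21,000xg for 90 min was taken as soluble protein and measured by TMTpro 16plex LC-MS/MS with channel sums equalised. Thermal stability is reported relative to control samples, with values from duplicates. Fold changes are given on a log2 scale.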

log2 fold change, inactive:
Cc1cccc(CC(=O)N2CCc3c2ccc(-c2cn(C)c4ncnc(N)c24)c3F)n1 -0.143, CCCCN(Cc1ccc(C(=O)NO)cc1)C(=O)Nc1ccccc1 [Nexturastat A] 0.037, O=C1NC(=O)C(c2cnc3ccccn23)=C1c1cn2c3c(cc(F)cc13)CN(C(=O)N1CCCCC1)CC2 0.142, NC(=O)Nc1cc(-c2cccc(F)c2)sc1C(=O)N[C@H]1CCCNC1 -0.052, CC(C)(O)CC(=O)NCCn1ccc2ncnc(Nc3ccc(Oc4cccc(C(F)(F)F)c4)c(Cl)c3)c21 -0.149, c1cn2cc(-c3ccc4cn[nH]c4c3)nc(Nc3ccc(N4CCOCC4)cc3)c2n1 [entospletinib] 0.068, CS(=O)(=O)c1ccc(-c2cnc(N)c(C(=O)Nc3ccccc3)n2)cc1 -0.089, Cc1cc(Nc2cc(N3CCN(C)CC3)nc(Sc3ccc(NC(=O)C4CC4)cc3)n2)n[nH]1 [tozasertib] 0.017, O=C(CCCCCCC(=O)Nc1ccccc1)NO [vorinostat] 0.05, Cc1ccc(Sc2cncc3sc(C(N)=O)cc23)cc1 -0.052, CS(=O)(=O)CCNCc1ccc(-c2ccc3ncnc(Nc4ccc(OCc5cccc(F)c5)c(Cl)c4)c3c2)o1 [lapatinib] 0.107, CCCS(=O)(=O)Nc1ccc(F)c(C(=O)c2c[nH]c3ncc(Cl)cc23)c1F 0.054, CC[C@@H]1C(=O)N(C)c2cnc(Nc3ccc(C(=O)N[C@H]4CC[C@H](N5CCN(CC6CC6)CC5)CC4)cc3OC)nc2N1C(C)C [volasertib] 0.118, CN(CCOc1ccc(C[C@@H]2SC(=O)NC2=O)cc1)c1ccccn1 (racemic) [rosiglitazone] 0.008, Cn1cncc1[C@@](N)(c1ccc(Cl)cc1)c1ccc2c(c1)c(-c1cccc(Cl)c1)cc(=O)n2C [tipifarnib] 0.013, CC1=C(C(=O)Nc2cc3cn[nH]c3cc2F)C(c2ccc(C(F)(F)F)cc2)CC(=O)N1 (stereo unspecified) -0.009, COc1cc2nc(-c3cc(F)ccc3O)nc(N[C@@H]3CNC[C@H]3C(C)(C)O)c2cc1OC 0.04, C[C@@H]1COCCN1c1cc(C2(S(C)(=O)=O)CC2)nc(-c2cccc3[nH]ccc23)n1 -0.002, CON(C)C(=O)N1N=C(c2cc(F)ccc2F)S[C@@]1(CCCN)c1ccccc1 [filanesib] 0.126, Cc1cc(Nc2cc(CN3CCOCC3)c3nc(C)c(Cc4ccc(Cl)cc4F)n3n2)n[nH]1 [gandotinib] 0.097, Cc1ccc(NC(=O)c2cccc(C(C)(C)C#N)c2)cc1Nc1ccc2ncn(C)c(=O)c2c1 0.017, CS(=O)(=O)N1CCN(Cc2cc3nc(-c4cccc5[nH]ncc45)nc(N4CCOCC4)c3s2)CC1 [pictilisib] -0.045, CCn1c(C(=O)N(C2CC2)C2CC2)cc2c3c(ncn3C)c(Nc3cc(C)n(C)n3)nc21 -0.052, CN1CCC(CNc2ccc3ncc(-c4cccc(OC(F)(F)F)c4)n3n2)CC1 -0.038, Fc1ccc(Cl)cc1-c1nc(Nc2ccncc2)c2nccnc2n1 0.052, CN1CCN(c2nc(C3=C(c4c[nH]c5ccccc45)C(=O)NC3=O)c3ccccc3n2)CC1 [sotrastaurin] 0.037, CN1CC[C@H](c2c(O)cc(O)c3c(=O)cc(-c4ccccc4Cl)oc23)[C@H](O)C1 [alvocidib] 0.199, Nc1ccccc1NC(=O)c1ccc(CNC(=O)OCc2cccnc2)cc1 [entinostat] -0.073, CC[C@H](C)[C@H](NC(=O)[C@H]([C@@H](C)CC)N(C)C(C)=O)C(=O)N[C@H](C(=O)N[C@@H](CC(C)C)C(=O)[C@@]1(C)CO1)[C@@H](C)O [epoxomicin] -0.005, C[C@H](Nc1ncnc2nc[nH]c12)c1cc2cccc(Cl)c2c(=O)n1-c1ccccc1 [duvelisib] -0.036, CCn1cc(-c2ccnc3[nH]c(-c4cccc(CN(C)C)c4)cc23)c(-c2ccc(NC(=O)N(C)C)cc2)n1 -0.038
